Measured values taken from PubChem BioAssay AID2685 (National Center for Advancing Translational Sciences (NCATS), 2010).
The list shows a part of the results. The main result of the screen is listed elsewhere. These columns were measured beside it and carry no call. Most of these compounds were active or inconclusive in the main read-out, so they are no random draw. Words in brackets tell the shape of the fitted curve; partial curves, single points and poor fits give uncertain potencies.

Test: qHTS Assay for Lipid Storage Modulators in Drosophila S3 Cells;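 on cell number change: cells counted by Cell Tracker Red CMTPX staining in the red channel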
Conditions: BODIPY lipid droplet fluorescence, 18-24 h; for cell number change: measured here: cell count max response, cells fed with added oleic acid
Method in brief: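 Laser-scanning cytometry quantifies lipid droplet accumulation (500–530 nm total intensity; droplet/cell object ratio) in oleic acid-fed (400 uM added) Drosophila S3 cells treated with a concentration series. 20 uM Triacsin C defined 100% inhibition.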

[1] = measured here: cell number channel AC50, cells fed with added oleic acid
[2] = measured here: lipid fluorescence (Fed channel) AC50, cells fed with added oleic acid

Row | SMILES | cell number change [%] | AC50 [1] | AC50 [2]
1 | COc1ccc(/C=N/Nc2nc(N3CCCCC3)nc(N3CCCCC3)n2)cc1[N+](=O)[O-] | 47.3 | 9.2 µM [rising, partial curve] | 1.64 µM [rising, partial curve]
2 | Cc1ccc(/C=C2/SC(=S)N(CCC(=O)N3CCN(c4ccccc4)CC3)C2=O)cc1 | -73 | 32.6 µM [falling, single point] | 29.1 µM [falling, partial curve]
3 | CCOC(=O)C(NC(=O)Nc1ncccn1)(Oc1ccccc1)C(F)(F)F (stereo not given) | -9.71 |  | 
4 | CC(=O)Nc1ccc(S(=O)(=O)NCC(=O)NCCCc2ccccc2)cc1 | 18.5 |  | 9.2 µM [falling, partial curve, poor fit]
5 | Cc1ccc(NC(=O)COC(=O)CN2CSCC2=O)cc1C | -0.135 |  | 
6 | CCOc1ccc(S(=O)(=O)N2CCOCC2)cc1NC(=O)CN1C(=O)NC2(CCCCC2)C1=O | -20.6 |  | 0.00651 µM [falling, full curve, poor fit]
7 | CCS(=O)(=O)N1CCC(C(=O)NCc2ccc(F)cc2)CC1 | 14.4 |  | 
8 | OCc1cn(-c2ccccc2)nc1-c1cccnc1 | 95.1 | 20.6 µM [rising, single point] | 18.4 µM [rising, partial curve]
9 | CCc1ccc(/C=C2/SC(=S)N(CCCC(=O)Nc3ccccc3C(=O)O)C2=O)cc1 | 23.8 |  | 
10 | Cc1ccccc1N(CC(=O)NC1CCCCC1)C(=O)CCC(=O)Nc1nccs1 | 10 |  | 2.91 µM [rising, single point]
11 | CCc1ccc(NC(=O)CCCn2nc(CC)n3c(cc4occc43)c2=O)cc1 | 10.3 |  | 29.1 µM [falling, single point]
12 | COC(=O)c1ccc2[nH]c(CO)c(-c3ccccc3)c2c1 | -12.3 |  | 23.1 µM [rising, single point]
13 | O=C(CNC(=O)c1ccc(-c2ccccc2)cc1)OCc1ccc(Br)cc1 | -20 |  | 16.4 µM [falling, single point]
14 | CCN(CC(=O)Nc1c(F)cccc1F)C(=O)CN1C(=O)C2CCCCC2C1=O (stereo not given) | 13.1 |  | 10.3 µM [rising, partial curve]
15 | COC(=O)c1[nH]c2ccccc2c1NC(=O)c1ccccc1F | 17.6 |  | 0.092 µM [rising, full curve, poor fit]
16 | COCCn1c(SC)nnc1-c1c[nH]c2ccccc12 | 12.7 |  | 
17 | N#Cc1cc(-c2ccccc2)nnc1Sc1ccccc1 |  |  | 5.17 µM [rising, single point]
18 | CCOC(=O)C1(CCc2ccccc2)CCN(Cc2cnc(N(C)C)s2)CC1 | 21.2 | 0.00461 µM [rising, full curve, poor fit] | 
19 | CC(/C=N/Nc1nc(C)cc(=O)[nH]1)=C\c1ccccc1 | 12.4 |  | 6.51 µM [rising, full curve, poor fit]

Full records as entered above:
COc1ccc(/C=N/Nc2nc(N3CCCCC3)nc(N3CCCCC3)n2)cc1[N+](=O)[O-] in the list: cell number change [%]: 47.3; AC50 [1]: 9.2 µM [rising, partial curve]; AC50 [2]: 1.64 µM [rising, partial curve]
CCOC(=O)C1(CCc2ccccc2)CCN(Cc2cnc(N(C)C)s2)CC1 in the list: cell number change [%]: 21.2; AC50 [1]: 0.00461 µM [rising, full curve, poor fit]
CCc1ccc(NC(=O)CCCn2nc(CC)n3c(cc4occc43)c2=O)cc1 in the list: cell number change [%]: 10.3; AC50 [2]: 29.1 µM [falling, single point]

(cont.)

Row | SMILES | cell number change [%] | AC50 [1] | AC50 [2]
20 | CN(Cc1ccon1)C(=O)CC1C(=O)NCCN1CC1CCCCC1 (stereo not given) | 4.65 |  | 0.146 µM [falling, full curve, poor fit]
21 | CCC1=[N+]([O-])C(C)(/C(C)=N\O)N(O)C1(C)C (stereo not given) | -66 | 29.1 µM [falling, single point] | 29.1 µM [falling, single point]
22 | CCCS(=O)(=O)N1CCN(c2cc3c(cc2[N+](=O)[O-])n(C)c(=O)n3C)CC1 | -17.1 |  | 0.326 µM [falling, full curve, poor fit]
23 | CC(C)(C)NC(=O)N1CCN(c2nc(-c3ccccc3)ns2)CC1 | 5.16 | 6.51 µM [rising, single point] | 
24 | CC(C)(C)NC(=O)C(c1ccccn1)N(C(=O)c1ccc2c(c1)OCCO2)C1CCCC1 (stereo not given) | -81.7 | 23.1 µM [falling, single point] | 29.1 µM [falling, single point]
25 | CCOC(=O)Cc1csc(NC(=O)COc2ccccc2)n1 |  |  | 0.411 µM [falling, full curve]
26 | COc1ccccc1N1C(=O)S/C(=C\c2cccs2)C1=O | 12.4 |  | 29.1 µM [rising, single point]
27 | Cc1ccc2nc(-c3cccnc3)c(NC3CCCC3)n2c1 | 72.9 | 16.4 µM [rising, single point] | 
28 | COc1ccc(CC(=O)NCc2nnc(SCC(=O)c3ccc(OC)cc3)n2C)cc1 | 15.7 |  | 
29 | Cc1cccc(/C=C/c2onc(C)c2S(=O)(=O)N2CCC(C(=O)NC(C)(C)C)CC2)c1 | -5.48 |  | 
30 | CCn1c(CNC(=O)Cc2ccc(OC)cc2)nnc1SCCOc1ccccc1 |  | 3.26 µM [rising, single point] | 3.26 µM [rising, partial curve]
31 | Nc1nonc1-n1nnc(C(=O)N/N=C/c2ccc(Cl)cc2Cl)c1CN1CCOCC1 | 4.76 | 0.461 µM [rising, full curve, poor fit] | 6.51 µM [falling, partial curve]
32 | CC(=O)NCCOc1cccc2ccccc12 | 96.5 | 25.9 µM [rising, partial curve, poor fit] | 0.58 µM [rising, single point]
33 | COc1nc(Oc2ccc(=O)[nH]n2)nc(N2CCOCC2)n1 | 19.5 | 0.651 µM [falling, single point] | 18.4 µM [rising, single point]
34 | Cc1ccc(-n2c(=O)[nH]c3cc(C(=O)NC4CCN(Cc5ccccc5)CC4)ccc3c2=O)cc1 | -38.6 | 14.6 µM [falling, single point] | 29.1 µM [falling, single point]
35 | CCOc1ccccc1/C=N/NC(=O)c1nnn(-c2nonc2N)c1CN1CCC(C)CC1 | 270 | 29.1 µM [rising, single point] | 
36 | CCCN(CC(=O)Nc1ccccc1C)C(=O)CSc1ccccc1C | -5.56 |  | 32.6 µM [falling, partial curve]
37 | CC(=O)Nc1ccc(S(=O)(=O)c2ccc(N)cc2)cc1N | -15.5 | 6.51 µM [falling, single point] | 2.59 µM [rising, single point]
38 | Cc1cc(OCC(=O)N2CCN(c3ccc(F)cc3)CC2)c2c(C)cc(=O)oc2c1 | 22 |  | 5.8 µM [rising, single point]

Row | SMILES | cell number change [%] | AC50 [1] | AC50 [2]
39 | O=C(Oc1cc(-c2ccccc2)no1)c1ccc(Cl)cc1 | 46.6 | 14.6 µM [rising, partial curve, poor fit] | 29.1 µM [falling, single point]
40 | COc1ccc(CCNc2oc(-c3ccccc3OC)nc2C#N)cc1 |  | 1.84 µM [rising, partial curve] | 2.06 µM [rising, partial curve]
41 | Cc1ccc(Cl)cc1N1CCN(C(=O)c2ccc(CS(=O)Cc3ccc(Cl)cc3)o2)CC1 (stereo not given) | -31.4 | 29.1 µM [falling, single point] | 29.1 µM [falling, single point]
42 | CCCc1nc(SCC(=O)Nc2nc3c(s2)CCCC3)c2ccccc2n1 | 15.8 |  | 0.092 µM [falling, full curve, poor fit]
43 | O=C(Cc1ccc(Nc2nc(=S)[nH]c3ccccc23)cc1)NC1CCCCC1 |  |  | 2.91 µM [rising, single point]
44 | Cc1cc(C)n(Cc2ccc(C(=O)N/N=C/c3ccc(-c4ccc([N+](=O)[O-])cc4)o3)o2)n1 | 72.8 | 29.1 µM [rising, single point] | 29.1 µM [falling, single point]
45 | COc1ccc(-c2cn[nH]c2-c2ccc(OC)cc2O)cc1 | -6.94 |  | 29.1 µM [falling, partial curve]
46 | COc1ccc2[nH]c(C(=O)O)c(CCC(=O)O)c2c1 | -19.4 |  | 0.231 µM [falling, full curve, poor fit]
47 | COCCN(C(=O)CCc1nnc(Cc2c[nH]c3ccccc23)o1)C(C)C | -15.9 |  | 
48 | CCOc1ccc(NC(=O)CN(C)C(=O)c2n[nH]c(=O)c3ccccc23)cc1OCC | 25 | 0.116 µM [falling, full curve, poor fit] | 
49 | CCc1cc2c(=O)n(-c3ccccc3)c(=S)[nH]c2s1 | 2.97 | 5.17 µM [falling, single point] | 3.66 µM [falling, single point]
50 | CC(C)(C)NC(=O)[C@]1(C)CCC[C@@]2(C)C3CC[C@@]4(C)C[C@]3(CCC21)CC4=O (stereo not given in full) | -7.8 |  | 29.1 µM [rising, single point]
51 | CC1CCN(C(=O)COC(=O)c2nn(C)c(=O)c3ccccc23)CC1 | -31.9 | 20.6 µM [falling, single point] | 14.6 µM [falling, partial curve]
52 | Cc1ccccc1OCC(=O)NN1Cc2ccccc2C1=N | 44.5 | 20.6 µM [rising, single point] | 
53 | CC(=O)Oc1cccc(N2C(=O)C3CC=CCC3C2=O)c1 (stereo not given) | -30.8 |  | 
54 | Cc1ccc(CN2CCNC(=O)C2CC(=O)NCCCn2cccn2)o1 (stereo not given) | -20.1 |  | 
55 | CSc1nccn1C(=O)c1ccccc1[N+](=O)[O-] |  |  | 6.51 µM [falling, single point]
56 | Nc1nc(Nc2ccccc2)nc(N2CCOCC2)c1[N+](=O)[O-] | -21.2 | 0.0231 µM [falling, full curve, poor fit] | 
57 | O=C1COc2ccc(C(=O)COC(=O)C3CCN(S(=O)(=O)c4cccs4)CC3)cc2N1 | -19.9 |  | 29.1 µM [falling, single point]
